Source: article PMC6274483, “Novel Selective and Potent EGFR Inhibitor that Overcomes T790M-Mediated Resistance in Non-Small Cell Lung Cancer” (Molecules, 2016)

Test system: H1299 cells
Assay: CCK-8 cell viability, H1299
Type: cell-based
Details: Homo sapiens, NCI-H1299, H1299 (wild-type), read-out: Cellular Antiproliferative Activity (IC50, μM) H1299
Protocol: All the cell viability assays were performed according to the CCK-8 method. The cells were seeded at a density of 5 to 8 × 10^4 cells/mL in 96-well plates in growth medium supplemented with 10% serum at 37 °C with 5% CO2 for one day. After 12 h of incubation, 100 μL of medium was removed, and 100 μL of sample solution with different concentrations of inhibitor was added and then the cells were incubated for 48 or 72 h. Subsequently, 10 μL of CCK-8 reagent (Biotool Company, Kirchberg, Switzerland, 5.0 mg/mL) dissolved in phosphate-buffered saline (PBS) was added and the cells were incubated for another 4 h. The absorbance was read at 450 nm with a microplate reader (Thermo Fisher Scientific, Waltham, MA, USA). The data were calculated using GraphPad Prim version 5.0.

IC50: 10.8 µM
Compound: COc1cc2ncnc(Nc3ccc(F)c(Cl)c3)c2cc1OCCCN1CCOCC1 [Gefitinib, gefitinib]
